The target of assay [1] is T1, B7H3-V1-V2-His (human) (UniProt Q5ZPR3).
T1 sequence (antigen fragment, looked up): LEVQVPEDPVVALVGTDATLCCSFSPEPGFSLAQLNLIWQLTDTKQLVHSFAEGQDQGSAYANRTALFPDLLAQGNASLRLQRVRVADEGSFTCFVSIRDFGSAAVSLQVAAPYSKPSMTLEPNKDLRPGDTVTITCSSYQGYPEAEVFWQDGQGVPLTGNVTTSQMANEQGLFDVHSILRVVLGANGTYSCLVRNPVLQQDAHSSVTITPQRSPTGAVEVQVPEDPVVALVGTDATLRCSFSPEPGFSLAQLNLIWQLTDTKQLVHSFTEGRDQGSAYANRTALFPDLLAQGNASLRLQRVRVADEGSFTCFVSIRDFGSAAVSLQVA
The experiment in a line: indirect ELISA, antigen coated at 0.2 µg/mL, antibody at 0.5 µg/mL, HRP-labelled secondary antibody; y axis without title.

In assay [2] the target is T2, B7H3 on cells (B7H3 on HEK293 cells; B7H3 expressed from plasmid on HEK-293T and QT6 cells) (human) (UniProt Q5ZPR3).
T2 sequence (looked up): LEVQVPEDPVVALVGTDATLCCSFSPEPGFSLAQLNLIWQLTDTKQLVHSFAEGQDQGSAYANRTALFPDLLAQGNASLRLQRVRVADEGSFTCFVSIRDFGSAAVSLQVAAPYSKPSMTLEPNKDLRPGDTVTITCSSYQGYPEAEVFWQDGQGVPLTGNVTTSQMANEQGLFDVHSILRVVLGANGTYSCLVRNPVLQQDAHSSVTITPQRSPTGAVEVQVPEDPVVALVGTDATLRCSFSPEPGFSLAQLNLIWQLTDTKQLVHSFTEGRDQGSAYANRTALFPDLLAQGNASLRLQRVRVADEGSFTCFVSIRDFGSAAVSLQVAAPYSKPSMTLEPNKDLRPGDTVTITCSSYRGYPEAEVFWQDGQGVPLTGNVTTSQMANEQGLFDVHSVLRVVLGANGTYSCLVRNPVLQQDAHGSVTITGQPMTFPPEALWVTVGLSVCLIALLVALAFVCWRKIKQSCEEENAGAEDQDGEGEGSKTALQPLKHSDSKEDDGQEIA
The experiment in a line: flow cytometry on HEK293 cells.

Assay [3] concerns the target T2, B7H3 on cells (B7H3 on HEK293 cells; B7H3 expressed from plasmid on HEK-293T and QT6 cells) (human). The experiment in a line: flow cytometry on HEK293 cells, FITC-labelled secondary antibody.

No constants are given. Whether binding was seen depends on the method and setting. Some entries that bind do so weakly or less than the wild type. For some assays here: Where a sequence is shown, tags or fusion partners need not be part of it.

B1: anti-B7H3 antibody 2B8 (antibody, V domains shown)
VH: QVQLQQSGPELVRPGVSVKISCKVSGYTFTDGAMHWVKRSHAKSLEWIGIINTNSGNTNYNQKFQGKATMTVDKSSSTAYMELARLTSEDSAIYYCARGVFYYGYGAWFAYWGQGTLVTVSA
VL: DVQITQSPSYLTASPGETIIINCRASKTISNYLAWYQEKPGKTNKLLIYSGSTLQSGIPSRFSGSGSDTDFTLTISSLEPEDFAMYYCQQHHEYPLTFGAGTKLELKR
As for B1, the binding result in assay [1] was “binds”.

B2: humanized 6F7 with light chain variable region LV1 (antibody, V domains shown)
VH: EVQLVESGGGLVQPGGSLRLSCAASGFTFTDYYMSWVRQAPGKGLEWVAFIRNKANGYTTEYSASVKGRFTISRDDSKNSLYLQMNSLRAEDTAVYYCARDSHYRPFAYWGQGTLVTVSS
VL: DIVMTQSPLSLPVTPGEPASISCKSSQSLLNSGNQNNYLTWYLQKPGQSPQLLIYLASTRDSGVPDRFSGSGSGTDFTLKISRVEAEDVGVYYCQNDYTYPLTFGGGTKVEIKR
On to B2, for which the binding result in assay [2] and in assay [3] was “binds” in each case.

B3: humanized 6F7 with light chain variable region LV2 (antibody, V domains shown)
VH: EVQLVESGGGLVQPGGSLRLSCAASGFTFTDYYMSWVRQAPGKGLEWVAFIRNKANGYTTEYSASVKGRFTISRDDSKNSLYLQMNSLRAEDTAVYYCARDSHYRPFAYWGQGTLVTVSS
VL: DIVMTQSPDSLAVSLGERATINCKSSQSLLNSGNQNNYLTWYQQKPGQPPKLLIYLASTRDSGVPDRFSGSGSGTDFTLTISSLQAEDVAVYYCQNDYTYPLTFGGGTKVEIKR
Turning to B3, the binding entry in assay [2] and in assay [3] was “binds” throughout.

B4: anti-B7H3 antibody 6F7 (antibody, V domains shown)
VH: EVKLVESGGGLVQPGGSLRLSCATSGFTFTDYYMSWVRQPPGKALEWLGFIRNKANGYTTEYSASVKGRFTISSDDSQSILYLQMNTLRAEDSATYYCARDSHYRPFAYWGQGTLVTVSA
VL: DIQMTQSPSSLTVTAGEKVTMSCKSSQSLLNSGNQNNYLTWYQQKPGQPPKLLIYLASTRDSGVPDRFTGSGSGTDFTLTISSVQAEDLAVYYCQNDYTYPLTFGAGTKLELKR
As for B4, the binding result in assay [1] is recorded as “binds”.

B5: anti-B7H3 antibody 23H1 (antibody, V domains shown)
VH: EVKLVESGGGLVQPGGSLRLSCATSGFTFTDYYMSWVRQPPGKALEWLGFIRNKVNDYTTEYSVSVKGRFTISRDNSQTILYLQMNTLRAEDSATYYCARDSPYRPFAYWGQGTLVTVSA
VL: DIVMTQSPSSLTVTAGENVTMSCKSSQTLLNNGNQKNFLTWYQQKPGQPPKLLIYLASTRESGVPDRFTGSGSGTDFTLTISSVQAEDLAVYYCQNDYTYPLTFGAGTKLELKR
On to B5, for which, in assay [1], the binding result was “binds”.

B6: anti-B7H3 antibody 26B6 (antibody, V domains shown)
VH: EVQLQQSGPELVKPGASVKISCKTSGYAFTEYTMHWVKQSQGKSLEWIGGINPNTGGTTYNQKFNGKATLTVDRSSSTAYMELRSLTSEDSAVYYCTRPYRDDGGFHWYFDVWGAGTAVTVSS
VL: QIVLTQSPAVMSTSPGEKVTMTCSASSSVSYMQWYQQKSGTSPKRWIYDTSKLTSGVPARFSGSGSGTSYSLTISSMEAEDAATYYCQQWSSNPLTFGAGTKLELKR
As for B6, the binding entry in assay [1] is recorded as “binds”.

Source of the values: patent US20250011430A1.
